The text below walks through data of patent US20250177530A1, “MOLECULES THAT BIND TO ENPP1 POLYPEPTIDES” (UNIVERSITY OF PITTSBURGH - OF THE COMMONWEALTH SYSTEM OF …, priority 2022, published 2025).

The data set has as its system transduced T cells. Nature of the data set: CAR expression on transduced T cells by flow cytometry. In kind it is cell-based, human. On the technique in general: Flow cytometry measures light scatter and fluorescence of single cells or particles in a stream.

B1: CAR 3G12: 2nd generation anti-ENPP1 CAR: scFv 3G12 (SEQ ID NO:291) plus CAR chain SEQ ID NO:292 (CD8a, 4-1BB, CD3zeta) (protein)
chain: DIQMTQSPSSLSASVGDRVTITCRASQSISSYLNWYQQKPGKAPKLLIYAASSLQSGVPSRFSGSGSGTDFTLTISSLQPEDVAVYYCQQYYTSRITFGQGTKLEIKGGGGSGGGGSGGGGSQVQLVESGGGLVKPGGSLRLSCAASGFTFSDYYMSWIRQAPGKGLEWVSYISSSGSTIYYADSVKGRFTISRDNAKNSLYLQMNSLRAEDTAVYYCAREVYYYDSSGYYTYYFDYWGQGTLVTVSSGQAGRTTTPAPRPPTPAPTIASQPLSLRPEACRPAAGGAVHTRGLDFACDIYIWAPLAGTCGVLLLSLVITLYCKRGRKKLLYIFKQPFMRPVQTTQEEDGCSCRFPEEEEGGCELRVKFSRSADAPAYKQGQNQLYNELNLGRREEYDVLDKRRGRDPEMGGKPRRKNPQEGLYNELQKDKMAEAYSEIGMKGERRRGKGHDGLYQGLSTATKDTYDALHMQALPPR
In the case of B1, the CAR expression level is 33.4% (transduced CD4^+ T cells) and 36.7% (transduced CD8^+ T cells).
